Measured values reported in patent US11571437B2, “Methods of treating cancer using PRMT5 inhibitors” (Janssen Pharmaceutica NV, priority 2019, dated 2023).

Assay: Phase 1 open-label study Part 1: safety and tolerability
Type: in vivo, human
Description: This is a multi-part, Phase 1, open-label, multicenter study to evaluate the safety, pharmacokinetics, pharmacodynamics, and preliminary clinical activity of JNJ-64619178 monotherapy administered either to adult human subjects with advanced solid tumors or B cell non-Hodgkin lymphomas who previously received or are ineligible for standard treatment options, or to adult subjects with lower risk myelodysplastic syndromes (MDS) who are red blood cell (RBC) transfusion-dependent and relapsed or refractory to erythropoiesis-stimulating agent (ESA) treatment.
Fifteen (15) participants with various solid tumors (e.g., breast cancer, prostate cancer, salivary duct carcinoma, adenoid cystic carcinoma) were dosed in the “Part 1” study described below with JNJ-64619178 at 0.5 mg (1′ cohort), 1 mg (2nd cohort), 2 mg (3rd cohort) and 4 mg (4th cohort) under a schedule of 14 days continuous dose administration followed by a 7-day rest period (14 days on/7 days off in a 21-day cycle). […]
The JNJ-64619178 starting dose is based on toxicology results obtained using no observed adverse effect level (NOAEL) dose, more conservative than the highest non-severely toxic dose (HNSTD) in the dog as the most sensitive species. […] Alternative dosing schedules (e.g., continuous dosing, 7 days on/7 days off, and 7 days on/14 days off) are also evaluated. […]

Nc1nc2cc(CC[C@H]3C[C@@H](n4ccc5c(N)ncnc54)[C@H](O)[C@@H]3O)ccc2cc1Br [JNJ-64619178, (1S,2R,3S,5R)-3-(2-(2-amino-3-bromoquinolin-7-yl)ethyl)-5-(4-amino-7H-pyrrolo[2,3-d]pyrimidin-7-yl)cyclopentane-1,2-diol]
provisional RP2D (QD): 1 mg | provisional RP2D (intermittently): 1.5 mg
